This list holds what a sample rich in targets with a hit left over. The data scatter; read single values as rough. The list shows a part of the results, in another mix than the full data.
These targets were tested with COC(=O)/C=C/c1ccccc1 [methyl cinnamate] (assay: log2 ratio of iodoacetamide-alkyne labeling of the cysteine site, DMSO over compound (competition); higher = stronger covalent engagement of the cysteine by the compound, active = 1 or more). Settings: 500 µM; treatment time 1 h; system: HEK293T cell lysate.
Procedure, shortened: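 Three replicates, each with duplicate channels, were prepared from HEK293T lysate (2 mg/mL) treated with vehicle or electrophile at 500 µM for 1 h at ambient temperature. Iodoacetamide alkyne was then applied for 1 h, and samples were clicked to sCIP-TMT reagents, pooled, trypsin-digested overnight at 37 °C, enriched on streptavidin, acid-eluted and analysed on Orbitrap Eclipse LC-MS/MS with FAIMS, with FragPipe quantification. The log2 competition ratio per cysteine is the mean control-channel divided by the mean compound-channel reporter intensity. Cysteines quantified in only one replicate were left out.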

The chains behind the UniProt entries cited, without tags or fusion partners. Where a name states a change or a piece, a line headed by the entry shows the natural chain unless it says otherwise.
UniProt P35998: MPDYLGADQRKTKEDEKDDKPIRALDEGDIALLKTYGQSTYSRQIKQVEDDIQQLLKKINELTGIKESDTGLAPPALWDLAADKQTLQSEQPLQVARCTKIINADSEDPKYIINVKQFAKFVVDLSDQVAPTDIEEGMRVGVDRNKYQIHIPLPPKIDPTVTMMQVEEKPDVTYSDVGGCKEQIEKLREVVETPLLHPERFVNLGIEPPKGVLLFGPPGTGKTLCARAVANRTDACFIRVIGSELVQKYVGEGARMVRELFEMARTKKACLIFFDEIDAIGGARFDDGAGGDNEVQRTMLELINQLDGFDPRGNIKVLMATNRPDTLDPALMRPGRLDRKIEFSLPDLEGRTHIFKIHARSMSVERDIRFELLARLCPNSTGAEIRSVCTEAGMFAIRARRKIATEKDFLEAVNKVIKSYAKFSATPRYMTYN
UniProt P35250, whole entry, looked up: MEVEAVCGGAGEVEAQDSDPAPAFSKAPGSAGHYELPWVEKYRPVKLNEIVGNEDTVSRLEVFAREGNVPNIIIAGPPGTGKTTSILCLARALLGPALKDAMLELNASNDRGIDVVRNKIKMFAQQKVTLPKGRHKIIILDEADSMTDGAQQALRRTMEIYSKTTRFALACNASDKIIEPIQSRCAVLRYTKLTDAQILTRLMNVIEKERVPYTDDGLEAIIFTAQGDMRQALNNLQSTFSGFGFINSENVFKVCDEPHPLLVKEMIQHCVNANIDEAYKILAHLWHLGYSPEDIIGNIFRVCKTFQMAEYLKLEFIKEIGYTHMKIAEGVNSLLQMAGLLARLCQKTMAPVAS
UniProt P41227: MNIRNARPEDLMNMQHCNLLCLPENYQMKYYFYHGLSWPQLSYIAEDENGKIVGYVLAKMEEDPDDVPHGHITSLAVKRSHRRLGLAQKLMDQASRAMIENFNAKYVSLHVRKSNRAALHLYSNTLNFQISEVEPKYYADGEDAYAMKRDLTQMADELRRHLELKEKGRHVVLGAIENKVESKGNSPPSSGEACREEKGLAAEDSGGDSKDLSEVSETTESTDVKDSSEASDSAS
UniProt P33176: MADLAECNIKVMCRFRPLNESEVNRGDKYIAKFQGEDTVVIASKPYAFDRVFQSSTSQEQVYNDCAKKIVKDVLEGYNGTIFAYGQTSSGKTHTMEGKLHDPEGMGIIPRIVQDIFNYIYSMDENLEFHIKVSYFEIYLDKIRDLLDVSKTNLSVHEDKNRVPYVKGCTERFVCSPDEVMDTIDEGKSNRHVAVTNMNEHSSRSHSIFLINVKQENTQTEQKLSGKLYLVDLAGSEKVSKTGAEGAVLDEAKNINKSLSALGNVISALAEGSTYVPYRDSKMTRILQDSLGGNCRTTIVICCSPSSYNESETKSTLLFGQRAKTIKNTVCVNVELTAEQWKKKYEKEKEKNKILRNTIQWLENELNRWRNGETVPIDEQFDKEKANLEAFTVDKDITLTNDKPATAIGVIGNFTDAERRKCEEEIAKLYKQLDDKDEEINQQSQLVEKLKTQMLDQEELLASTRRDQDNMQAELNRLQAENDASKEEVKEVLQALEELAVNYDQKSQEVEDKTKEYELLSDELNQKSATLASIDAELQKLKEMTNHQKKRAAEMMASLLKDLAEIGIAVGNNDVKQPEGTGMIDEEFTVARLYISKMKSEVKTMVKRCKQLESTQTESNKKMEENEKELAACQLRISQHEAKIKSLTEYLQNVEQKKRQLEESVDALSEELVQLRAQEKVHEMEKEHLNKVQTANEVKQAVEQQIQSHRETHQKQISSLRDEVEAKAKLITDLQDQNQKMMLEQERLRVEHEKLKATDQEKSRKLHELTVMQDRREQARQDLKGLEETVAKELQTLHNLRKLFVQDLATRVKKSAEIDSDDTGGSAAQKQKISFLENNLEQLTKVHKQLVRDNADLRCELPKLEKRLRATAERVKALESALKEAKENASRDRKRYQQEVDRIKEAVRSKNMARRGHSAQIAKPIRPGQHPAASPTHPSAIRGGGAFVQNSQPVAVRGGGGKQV
UniProt P40227, whole entry, looked up: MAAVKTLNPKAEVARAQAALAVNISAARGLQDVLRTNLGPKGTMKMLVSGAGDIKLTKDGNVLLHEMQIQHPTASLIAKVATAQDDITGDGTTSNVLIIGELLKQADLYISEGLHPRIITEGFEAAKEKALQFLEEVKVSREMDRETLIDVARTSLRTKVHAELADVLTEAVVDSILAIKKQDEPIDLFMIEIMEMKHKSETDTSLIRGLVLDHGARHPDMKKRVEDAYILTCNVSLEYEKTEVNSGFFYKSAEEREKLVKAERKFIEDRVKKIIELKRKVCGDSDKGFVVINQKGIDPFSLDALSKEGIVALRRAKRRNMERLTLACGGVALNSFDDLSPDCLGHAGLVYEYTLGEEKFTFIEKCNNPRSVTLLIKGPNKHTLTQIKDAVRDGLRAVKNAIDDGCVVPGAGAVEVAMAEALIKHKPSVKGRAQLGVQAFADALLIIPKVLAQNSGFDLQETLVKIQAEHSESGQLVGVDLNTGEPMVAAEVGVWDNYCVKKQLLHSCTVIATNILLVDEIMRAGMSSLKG
UniProt P31948, whole entry, looked up: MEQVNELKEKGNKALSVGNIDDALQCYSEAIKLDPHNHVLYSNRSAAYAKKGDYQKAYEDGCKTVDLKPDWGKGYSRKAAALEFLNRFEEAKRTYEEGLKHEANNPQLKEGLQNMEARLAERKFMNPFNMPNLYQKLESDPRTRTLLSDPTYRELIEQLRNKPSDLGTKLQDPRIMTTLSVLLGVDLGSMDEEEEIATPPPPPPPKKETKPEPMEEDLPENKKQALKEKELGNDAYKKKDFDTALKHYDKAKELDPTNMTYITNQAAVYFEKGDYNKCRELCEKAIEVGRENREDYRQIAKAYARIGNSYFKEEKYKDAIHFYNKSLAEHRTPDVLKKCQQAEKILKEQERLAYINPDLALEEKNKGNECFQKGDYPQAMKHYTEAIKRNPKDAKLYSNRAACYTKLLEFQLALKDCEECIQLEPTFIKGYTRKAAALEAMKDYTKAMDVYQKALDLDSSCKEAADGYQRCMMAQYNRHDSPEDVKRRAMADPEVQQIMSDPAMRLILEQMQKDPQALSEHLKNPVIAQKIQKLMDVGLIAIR
UniProt P41091, whole entry, looked up: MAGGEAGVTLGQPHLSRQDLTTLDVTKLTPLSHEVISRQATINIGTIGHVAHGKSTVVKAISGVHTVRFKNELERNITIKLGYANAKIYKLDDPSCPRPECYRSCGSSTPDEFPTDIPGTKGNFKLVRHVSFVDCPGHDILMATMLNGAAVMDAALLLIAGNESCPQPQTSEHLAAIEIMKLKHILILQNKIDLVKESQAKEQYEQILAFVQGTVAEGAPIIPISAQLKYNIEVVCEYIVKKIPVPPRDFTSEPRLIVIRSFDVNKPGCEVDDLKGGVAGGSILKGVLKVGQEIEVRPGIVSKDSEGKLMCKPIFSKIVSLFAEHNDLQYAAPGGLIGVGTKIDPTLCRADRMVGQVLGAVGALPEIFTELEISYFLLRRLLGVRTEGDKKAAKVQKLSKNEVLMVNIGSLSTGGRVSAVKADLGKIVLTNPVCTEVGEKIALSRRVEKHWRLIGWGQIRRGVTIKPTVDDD
UniProt P37802: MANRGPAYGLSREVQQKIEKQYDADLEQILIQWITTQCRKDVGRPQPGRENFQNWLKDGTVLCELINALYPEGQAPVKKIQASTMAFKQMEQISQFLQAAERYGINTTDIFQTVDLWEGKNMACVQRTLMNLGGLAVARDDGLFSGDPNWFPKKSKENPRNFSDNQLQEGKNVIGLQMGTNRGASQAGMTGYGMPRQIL
UniProt P31946: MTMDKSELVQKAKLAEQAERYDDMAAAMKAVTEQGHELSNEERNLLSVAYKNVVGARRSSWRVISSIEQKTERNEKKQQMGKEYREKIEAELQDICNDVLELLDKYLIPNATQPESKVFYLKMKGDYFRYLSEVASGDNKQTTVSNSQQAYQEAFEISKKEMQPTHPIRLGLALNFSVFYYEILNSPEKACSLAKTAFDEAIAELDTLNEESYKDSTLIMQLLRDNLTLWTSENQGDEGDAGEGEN
UniProt P41240: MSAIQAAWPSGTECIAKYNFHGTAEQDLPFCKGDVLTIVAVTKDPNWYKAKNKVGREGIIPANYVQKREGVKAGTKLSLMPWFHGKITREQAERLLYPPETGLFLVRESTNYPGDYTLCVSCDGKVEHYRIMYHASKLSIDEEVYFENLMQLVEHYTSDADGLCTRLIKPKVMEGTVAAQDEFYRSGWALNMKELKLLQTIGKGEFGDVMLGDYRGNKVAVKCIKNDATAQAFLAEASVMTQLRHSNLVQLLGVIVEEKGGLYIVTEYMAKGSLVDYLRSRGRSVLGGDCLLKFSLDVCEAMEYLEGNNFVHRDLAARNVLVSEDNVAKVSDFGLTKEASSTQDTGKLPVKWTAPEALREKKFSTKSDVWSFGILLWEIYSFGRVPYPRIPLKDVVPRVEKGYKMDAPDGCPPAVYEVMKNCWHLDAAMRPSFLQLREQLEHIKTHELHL
UniProt P31150: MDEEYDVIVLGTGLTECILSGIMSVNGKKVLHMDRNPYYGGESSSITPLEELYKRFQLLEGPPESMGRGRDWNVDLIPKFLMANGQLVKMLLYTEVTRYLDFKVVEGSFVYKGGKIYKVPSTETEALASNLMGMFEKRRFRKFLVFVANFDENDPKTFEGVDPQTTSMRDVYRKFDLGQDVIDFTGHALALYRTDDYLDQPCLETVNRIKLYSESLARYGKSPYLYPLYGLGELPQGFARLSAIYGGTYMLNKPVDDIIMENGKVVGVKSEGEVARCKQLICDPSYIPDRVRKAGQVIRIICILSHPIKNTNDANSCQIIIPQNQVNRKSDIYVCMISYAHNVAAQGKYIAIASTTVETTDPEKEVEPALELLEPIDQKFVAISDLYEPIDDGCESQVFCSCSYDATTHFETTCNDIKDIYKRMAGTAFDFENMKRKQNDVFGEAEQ
UniProt P41250: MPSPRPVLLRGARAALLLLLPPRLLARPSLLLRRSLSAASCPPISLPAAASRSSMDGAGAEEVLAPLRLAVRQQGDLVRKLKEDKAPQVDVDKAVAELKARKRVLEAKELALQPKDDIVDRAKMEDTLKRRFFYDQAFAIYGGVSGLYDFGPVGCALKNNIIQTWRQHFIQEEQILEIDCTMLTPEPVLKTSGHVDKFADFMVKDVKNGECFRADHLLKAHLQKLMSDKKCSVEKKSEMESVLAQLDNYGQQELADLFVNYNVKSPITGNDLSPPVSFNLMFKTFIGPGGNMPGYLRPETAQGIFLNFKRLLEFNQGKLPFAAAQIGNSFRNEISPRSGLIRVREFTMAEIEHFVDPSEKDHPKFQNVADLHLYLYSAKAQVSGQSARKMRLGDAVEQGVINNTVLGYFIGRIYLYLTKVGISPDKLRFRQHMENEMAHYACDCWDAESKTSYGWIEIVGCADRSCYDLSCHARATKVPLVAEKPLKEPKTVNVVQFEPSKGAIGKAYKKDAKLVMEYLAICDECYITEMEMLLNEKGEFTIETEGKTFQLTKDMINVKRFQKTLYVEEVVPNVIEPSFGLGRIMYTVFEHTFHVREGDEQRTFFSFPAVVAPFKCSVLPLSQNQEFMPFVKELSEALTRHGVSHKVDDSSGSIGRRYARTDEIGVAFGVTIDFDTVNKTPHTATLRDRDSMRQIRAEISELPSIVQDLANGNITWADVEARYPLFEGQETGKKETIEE
UniProt P31040: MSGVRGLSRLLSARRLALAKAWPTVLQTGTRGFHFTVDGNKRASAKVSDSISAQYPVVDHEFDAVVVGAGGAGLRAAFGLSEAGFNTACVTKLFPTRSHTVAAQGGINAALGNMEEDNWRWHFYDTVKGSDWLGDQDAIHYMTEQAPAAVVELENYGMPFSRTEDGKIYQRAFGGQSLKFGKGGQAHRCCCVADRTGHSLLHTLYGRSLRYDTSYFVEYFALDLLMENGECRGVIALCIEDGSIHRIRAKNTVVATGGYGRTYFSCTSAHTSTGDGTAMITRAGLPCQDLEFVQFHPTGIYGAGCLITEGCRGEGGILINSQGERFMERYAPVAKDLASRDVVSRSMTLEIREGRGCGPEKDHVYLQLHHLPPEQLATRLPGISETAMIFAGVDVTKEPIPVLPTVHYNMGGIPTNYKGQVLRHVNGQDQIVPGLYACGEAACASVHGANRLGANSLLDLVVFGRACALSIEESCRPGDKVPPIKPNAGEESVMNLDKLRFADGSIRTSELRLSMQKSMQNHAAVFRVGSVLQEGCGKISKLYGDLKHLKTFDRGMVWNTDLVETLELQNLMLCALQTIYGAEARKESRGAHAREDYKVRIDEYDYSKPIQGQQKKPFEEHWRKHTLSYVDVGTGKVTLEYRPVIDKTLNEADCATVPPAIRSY
UniProt P36969, whole entry, looked up: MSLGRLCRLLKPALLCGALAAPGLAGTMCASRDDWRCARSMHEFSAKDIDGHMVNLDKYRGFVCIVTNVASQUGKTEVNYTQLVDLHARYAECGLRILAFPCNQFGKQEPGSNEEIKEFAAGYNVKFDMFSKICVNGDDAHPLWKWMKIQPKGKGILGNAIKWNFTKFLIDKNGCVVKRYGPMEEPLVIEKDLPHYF

Row | Target | log2 ratio of iodoacetamide-alkyne labeling
1 | UniProt P40855_C128 | inactive: 0.352
2 | PSMC2 C236 (UniProt P35998) | inactive: 0.0708
3 | RFC2 C255 (UniProt P35250) | inactive: -0.0024
4 | NCAPD3 C1316 (UniProt P42695) | inactive: 0.339
5 | AGL C767 (UniProt P35573) | inactive: -0.0817
6 | UniProt P42677_C77 | inactive: 0.248
7 | UniProt P41227_C194 | inactive: 0.526
8 | RPL4 C125 (UniProt P36578) | inactive: 0.0376
9 | MAT2A C56 (UniProt P31153) | inactive: 0.542
10 | MCM5 C207 (UniProt P33992) | inactive: 0.0663
11 | TTK C322 (UniProt P33981) | inactive: 0.432
12 | ATIC C363 (UniProt P31939) | inactive: 0.264
13 | IARS C1001 (UniProt P41252) | inactive: 0.312
14 | CSTF2 C62 (UniProt P33240) | inactive: -0.0599
15 | KIF5B C858 (UniProt P33176) | inactive: 0.463
16 | DEK C200 (UniProt P35659) | inactive: 0.478
17 | ABL2 C999 (UniProt P42684) | inactive: 0.206
18 | UniProt P30520_C182 | inactive: -0.0277
19 | GTF2F1 C130 (UniProt P35269) | inactive: 0.529

Row | Target | log2 ratio of iodoacetamide-alkyne labeling
20 | MYH9 C917 (UniProt P35579) | inactive: 0.162
21 | NCAPD3 C1389 (UniProt P42695) | inactive: -0.104
22 | CCT6A C406 (UniProt P40227) | inactive: 0.0852
23 | STIP1 C461 (UniProt P31948) | inactive: 0.162
24 | EIF2S3 C105 (UniProt P41091) | inactive: 0.153
25 | TAGLN2 C63 (UniProt P37802) | inactive: 0.0277
26 | HSPA4 C34 (UniProt P34932) | inactive: 0.154
27 | UniProt P31260_C200 | inactive: 0.338
28 | YWHAB C96 (UniProt P31946) | inactive: 0.412
29 | TMPO C570 (UniProt P42166) | inactive: 0.554
30 | UniProt P42285_C110 | inactive: -0.0907
31 | POLR2B C919 (UniProt P30876) | inactive: -0.242
32 | FEN1 C311 (UniProt P39748) | inactive: 0.136
33 | CSK C31 (UniProt P41240) | inactive: 0.321
34 | GDI1 C302 (UniProt P31150) | inactive: -0.056
35 | UniProt P41250_C616 | inactive: 0.152
36 | SDHA C305 (UniProt P31040) | inactive: 0.0756
37 | GPX4 C93 (UniProt P36969) | inactive: 0.307

Individual results from the list.
Value of DEK C200 (UniProt P35659) under log2 ratio of iodoacetamide-alkyne labeling: inactive: 0.478
Value of POLR2B C919 (UniProt P30876) under log2 ratio of iodoacetamide-alkyne labeling: inactive: -0.242

Reference: the supplement of paper PMC11006884
